Measurements from PubChem BioAssay AID192 (DTP/NCI, 2004).
The list does not hold the whole screen: it covers a few groups of compounds. Not every dose and run of a compound is shown. T/C is the treated group as % of the vehicle group. For survival time, the PubChem record calls one and a half times the control and up active, and a quarter to a half above the control has no call in these data; cut-offs in other NCI protocols can differ. Schedule codes are those of the source, read here as Q, the interval in days (D) or hours (H), X, the number of doses. Some entries show no survivor count and are marked so; the dose need not have been tolerated.

Tested on: BDF1 mice, B16 melanoma ip, median survival T/C
Assay: NCI In Vivo Anticancer Drug Screen. Data for tumor model B16 Melanoma (intraperitoneal) in B6D2F1 (BDF1) mice
Settings: T/C endpoint: median survival time, schedule: Q01DX009 (ip), higher T/C = longer survival
In short: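 In this screen, activity was judged from survival or tumor size in treated versus vehicle-treated tumor-bearing mice, reported as T/C.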

## C=C(C)C(=O)OCC12CC(=O)C(C)=CC1OC1C(=O)C(OC(=O)C(=C)C)C2(C)C12CO2 (configuration not stated)
dose: 0.25 mg/kg/injection, vehicle: water
  T/C: 138 % of control [survivor count not shown]
dose: 0.5 mg/kg/injection, vehicle: water
  T/C: 134 % of control [survivor count not shown]
dose: 1.0 mg/kg/injection, vehicle: water
  T/C: 145 % of control [survivor count not shown]
dose: 2.0 mg/kg/injection, vehicle: water
  T/C: 153 % of control [survivor count not shown]
dose: 4.0 mg/kg/injection, vehicle: water
  T/C: 148 % of control [survivor count not shown]

## CC(=O)OC[C@]12CCC(C)=C[C@H]1O[C@H]1C(=O)[C@@H](OC(C)=O)[C@@]2(C)[C@]12CO2
dose: 0.5 mg/kg/injection, vehicle: saline + alcohol
  T/C: 126 % of control [survivor count not shown]
dose: 2.0 mg/kg/injection, vehicle: saline + alcohol
  T/C: 133 % of control [survivor count not shown]
